Earlier results in patent publication US12329766B2, “Compounds, methods, and treatments for abnormal signaling pathways for prenatal and postnatal development” (priority 2006, dated 2025).
Some entries share one result that the patent states for a list of compounds. For at least one compound, name, drawing or mass did not settle the structure.

Molecular target: T1, PDK1 (Homo sapiens, UniProt O15530)
T1 sequence (O15530 1-556): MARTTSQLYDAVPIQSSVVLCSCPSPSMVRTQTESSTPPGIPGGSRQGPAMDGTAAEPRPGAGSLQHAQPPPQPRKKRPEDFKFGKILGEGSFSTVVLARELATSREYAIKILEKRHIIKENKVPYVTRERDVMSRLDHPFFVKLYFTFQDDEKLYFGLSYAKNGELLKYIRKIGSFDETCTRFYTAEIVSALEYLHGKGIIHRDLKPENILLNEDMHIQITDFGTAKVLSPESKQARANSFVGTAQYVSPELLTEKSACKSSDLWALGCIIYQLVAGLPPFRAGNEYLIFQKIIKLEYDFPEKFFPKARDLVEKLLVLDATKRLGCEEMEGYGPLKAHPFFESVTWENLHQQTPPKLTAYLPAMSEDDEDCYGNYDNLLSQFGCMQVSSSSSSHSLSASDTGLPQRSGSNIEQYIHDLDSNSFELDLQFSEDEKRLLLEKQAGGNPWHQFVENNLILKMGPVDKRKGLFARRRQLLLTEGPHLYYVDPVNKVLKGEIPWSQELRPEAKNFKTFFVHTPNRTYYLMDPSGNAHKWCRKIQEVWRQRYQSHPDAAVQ
Conditions: read-out: K1 values, binding to PDK1; cited from earlier work

For O=P(O)(O)O[C@H]1[C@H](O)[C@@H](OP(=O)(O)O)[C@H](OP(=O)(O)O)[C@@H](OP(=O)(O)O)[C@H]1O [Ins(1,3,4,5)P4], the Ki is listed as 20 to 60 nM.
